# Data taken from article PMC7819943, “Rice protein-binding microarrays: a tool to detect cis-acting elements near promoter regions in rice”.
# The list shows a part of the results.
# Target: T1, OsSMF1 (Oryza sativa, UniProt Q6ZLB0 1-436)
# T1 sequence: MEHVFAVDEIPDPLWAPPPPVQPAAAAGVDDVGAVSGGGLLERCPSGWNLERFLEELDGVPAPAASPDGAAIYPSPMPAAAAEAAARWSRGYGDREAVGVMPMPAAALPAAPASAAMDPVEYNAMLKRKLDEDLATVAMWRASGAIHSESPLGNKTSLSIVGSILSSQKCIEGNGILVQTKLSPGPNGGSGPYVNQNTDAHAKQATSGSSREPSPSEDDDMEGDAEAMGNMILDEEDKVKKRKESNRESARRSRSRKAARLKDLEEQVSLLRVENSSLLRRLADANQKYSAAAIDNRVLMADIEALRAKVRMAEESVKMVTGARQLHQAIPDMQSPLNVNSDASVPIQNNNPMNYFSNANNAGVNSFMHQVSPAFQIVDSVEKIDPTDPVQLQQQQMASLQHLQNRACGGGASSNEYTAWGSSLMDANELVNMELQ
# Assay: protein-binding microarray (RPBM); PBS, 2% BSA, 51.3 ng/ul salmon testes DNA, 50 uM zinc acetate, 200 nM TF, 25 C, 1 h; high values mean tight binding
# Conditions: protein: recombinant; tags: N-terminal polyhistidine and DsRed monomer fusion (pET32a); chain copies: 2; label: CyDye5-dUTP incorporated in the synthesized complementary strand; 3' TTTTT single-stranded linker to array surface; dsDNA, one strand shown
# How it was run: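 Transcription factors, each fused N-terminally to a polyhistidine tag and DsRed, were expressed in E. coli BL21-CodonPlus and purified on Ni–NTA. A custom Agilent array was made double-stranded by primer extension with Cy5-dUTP and blocked with 2% BSA. It was incubated with 200 nM protein in PBS, 2% BSA, salmon testes DNA and 50 µM zinc acetate at 25 °C for 1 h, then washed. The binding signal is per-feature fluorescence intensity (arbitrary units) read on an Axon 4000B scanner.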
row,Sequence,binding signal
1,ACCCGCGCACGACGCAGACGCCGCGCGCGTCACGAGGCCCCGGAGTCACCTAGTGCAG,4910 fluorescence intensity (a.u.)
2,CGTGATAAAATGCTTTAGTAAACACGATTTCGCCACGTTACGGAGTCACCTAGTGCAG,3650 fluorescence intensity (a.u.)
3,CAAATCAAATTACCACATAAGCACCACGTCAATGCCACGTCGGAGTCACCTAGTGCAG,22200 fluorescence intensity (a.u.)
4,ATTCGCCATTTCCGCCCACTGCCACGCCAACGCCACTGCTCGGAGTCACCTAGTGCAG,4960 fluorescence intensity (a.u.)
5,TGGACGGACGGAGTATAACGCTATCAGTGACTAAGCTACTCGGAGTCACCTAGTGCAG,3260 fluorescence intensity (a.u.)
6,TCCTCCTCTCCTCCACACATCCAGGCAGGCAACACAAGAACGGAGTCACCTAGTGCAG,41800 fluorescence intensity (a.u.)
7,TAAATACTGGTGGGTCCCACATGTCATCGACAACCTATCTCGGAGTCACCTAGTGCAG,3420 fluorescence intensity (a.u.)
8,AAGCTGGAATACATCCAGTGTTCCACGTAAGCCAGCTGAACGGAGTCACCTAGTGCAG,7900 fluorescence intensity (a.u.)
9,CAATGGCCACGCCGTCTTGCAACCGCACTACTGCAGTTACCGGAGTCACCTAGTGCAG,3350 fluorescence intensity (a.u.)
10,CCTGCCAGCAGTACACGTCCATGGATCATCCAATATTAATCGGAGTCACCTAGTGCAG,3350 fluorescence intensity (a.u.)
11,CCACCACCACCACCGCACCCTCGCCACCGCATCCCATATCCGGAGTCACCTAGTGCAG,3150 fluorescence intensity (a.u.)
12,AACATTTCGAAACGGAGAGAGTATTACCTATTCGAGATTGCGGAGTCACCTAGTGCAG,31900 fluorescence intensity (a.u.)
13,AAAATAAAGCTGTGGATGAAATTGGATATAGATACATGGCCGGAGTCACCTAGTGCAG,15100 fluorescence intensity (a.u.)
14,CGCGCCGCCGGCCGCCGGCGATCCTCCCGCCGGAGCACGCCGGAGTCACCTAGTGCAG,26500 fluorescence intensity (a.u.)
15,TGACGGTGGCGGCTATGGCGGCGGCGGCGTCAGCTAGGTTCGGAGTCACCTAGTGCAG,3690 fluorescence intensity (a.u.)
16,CGGCTAGGCTCCTCCCTCTCGCGGTGACGCGCCACAACGACGGAGTCACCTAGTGCAG,4970 fluorescence intensity (a.u.)
17,ATAAGTGCTCAAGCGTTCAATGTGACATGGCGTAAAATTTCGGAGTCACCTAGTGCAG,4150 fluorescence intensity (a.u.)
18,TGAATCGAGTTGCCAGCTATACATATCCTCTCCAAATCAACGGAGTCACCTAGTGCAG,3320 fluorescence intensity (a.u.)
19,TAGTTTTCCCGCTAGGCGCCACGACGGAATGGGCGCTACACGGAGTCACCTAGTGCAG,3140 fluorescence intensity (a.u.)
20,CCCCACGACGCCACGTACTCTCGGTCTCTCGCCCCGCGCCCGGAGTCACCTAGTGCAG,11100 fluorescence intensity (a.u.)
21,ATGTCTTAAGCAAGTTTTGACATCCTCATTACAGTGCGGCCGGAGTCACCTAGTGCAG,3390 fluorescence intensity (a.u.)

# 2 entries from above, tab-delimited:
row	Sequence	binding signal
14	CGCGCCGCCGGCCGCCGGCGATCCTCCCGCCGGAGCACGCCGGAGTCACCTAGTGCAG	26500 fluorescence intensity (a.u.)
15	TGACGGTGGCGGCTATGGCGGCGGCGGCGTCAGCTAGGTTCGGAGTCACCTAGTGCAG	3690 fluorescence intensity (a.u.)

# Additional results follow:

row,Sequence,binding signal
1,AGACTAGAAACTTTCGGCCCGTCATTCTCATATTTTCGAACGGAGTCACCTAGTGCAG,3250 fluorescence intensity (a.u.)
2,AGATGAGAGAGAAGAGCAGCGGGCTACAAATCTGTAGCCACGGAGTCACCTAGTGCAG,3900 fluorescence intensity (a.u.)
3,ACGTGCAAGTTAAATTTTAACTCAGCGACCCACAACCCAACGGAGTCACCTAGTGCAG,3410 fluorescence intensity (a.u.)
4,TTGTTGACTACGAGTCAGACCTTCAGACCGCCATGTCGACCGGAGTCACCTAGTGCAG,4020 fluorescence intensity (a.u.)
5,CGCCGCGAAGGCGCGAAGCCCCGTCACCGCGCGCGCGCGCCGGAGTCACCTAGTGCAG,5540 fluorescence intensity (a.u.)
6,AGAGACGGGAATCTCCACGGCGATCACGTCCACACCACACCGGAGTCACCTAGTGCAG,3180 fluorescence intensity (a.u.)
7,GTTGCATATGCCGTCACTTGTCACGTCTGCCATGCACGAACGGAGTCACCTAGTGCAG,4460 fluorescence intensity (a.u.)
8,GTGGAGGCGCGGTGGGGTGGGGAAGGAGTGTGTTTCGTGTCGGAGTCACCTAGTGCAG,6590 fluorescence intensity (a.u.)
9,GCACGTGGGCCAACACGGCATAGTCCGTTCGGTGAGTCGTCGGAGTCACCTAGTGCAG,3740 fluorescence intensity (a.u.)
10,TTGGCGAGACCAGCCATGGCGATGGCGATGACGAACACAGCGGAGTCACCTAGTGCAG,3460 fluorescence intensity (a.u.)
11,ACGGCGAGCACCATCGACGAGCTGTACGCGTCAGGCGGGACGGAGTCACCTAGTGCAG,4290 fluorescence intensity (a.u.)
12,CTTCAAACCAAATAGACACTAAACACTATTGAAATTGCCACGGAGTCACCTAGTGCAG,3440 fluorescence intensity (a.u.)
13,GATCTGCTGCTAGCTAGCATGTTACGTAAATACGTACAAACGGAGTCACCTAGTGCAG,3320 fluorescence intensity (a.u.)
14,ACGATCGGTGACGACGAGCGACGACGCGGCATGAAGACGCCGGAGTCACCTAGTGCAG,3300 fluorescence intensity (a.u.)
15,AGCTACCATGACGCACGTACCTCCGCCGGCCACGCGTGTGCGGAGTCACCTAGTGCAG,4970 fluorescence intensity (a.u.)
16,GATAATGAGTCAGTCCTCTTGTCGATACTCCGCCGGTATGCGGAGTCACCTAGTGCAG,5150 fluorescence intensity (a.u.)
17,AGCCCCAAGCCCAGCCGCGCCCACGCCAAGGCCGCCCACGCGGAGTCACCTAGTGCAG,3440 fluorescence intensity (a.u.)
18,GGCGTCCCTCGCCCAGCGTGACTATCTCCCGGCCGGTGGCCGGAGTCACCTAGTGCAG,3410 fluorescence intensity (a.u.)
19,TACACATATCATCTATCCACATGGCCTCCTTCCTGTTAGGCGGAGTCACCTAGTGCAG,3380 fluorescence intensity (a.u.)
20,CTCACCTCACCGCCGATCCGGCCACGCAGCATAAATACGGCGGAGTCACCTAGTGCAG,3800 fluorescence intensity (a.u.)
21,GGGAGGGGAGCCGGCGTTGTCAGCGTCGCTCCGCCCACCGCGGAGTCACCTAGTGCAG,5660 fluorescence intensity (a.u.)
